From doi:10.1101/2023.12.21.572759
Where two headings read alike, the source gives them in different places. Results are given in words; binding and its absence hold for the method and conditions named. Some entries that bind do so weakly or less than the wild type.

Key:
[1] = molecular target: T1, mouse ASIC1a K105C/N414K (mouse) (UniProt Q6NXK8); test: voltage-clamp fluorometry
T1 sequence (chain, Alexa Fluor 488 C5-maleimide on C105 (K105C), in the VCF experiments): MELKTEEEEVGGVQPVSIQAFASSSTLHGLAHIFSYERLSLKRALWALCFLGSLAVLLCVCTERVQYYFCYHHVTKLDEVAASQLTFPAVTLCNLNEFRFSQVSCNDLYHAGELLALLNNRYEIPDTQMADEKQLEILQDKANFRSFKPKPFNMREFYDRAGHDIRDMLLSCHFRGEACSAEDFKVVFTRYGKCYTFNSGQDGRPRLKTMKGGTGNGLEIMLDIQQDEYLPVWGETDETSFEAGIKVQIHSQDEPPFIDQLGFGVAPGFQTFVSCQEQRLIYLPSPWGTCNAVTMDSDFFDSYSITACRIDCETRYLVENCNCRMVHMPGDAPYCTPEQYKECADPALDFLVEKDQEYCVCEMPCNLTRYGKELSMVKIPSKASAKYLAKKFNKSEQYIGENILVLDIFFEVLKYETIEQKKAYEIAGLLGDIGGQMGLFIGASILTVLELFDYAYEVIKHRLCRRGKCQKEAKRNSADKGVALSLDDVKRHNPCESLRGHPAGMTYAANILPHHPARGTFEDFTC

[2] = molecular target: T1, mouse ASIC1a K105C/N414K (mouse); test: voltage-clamp fluorometry; remark: listed apart in the source

With “Big dynorphin (from UniProt P01213 207-238) (peptide)” the binding [1] was “binds”.

For EDCIPKWKGCVNRHGDCCEGLECWKRRRSFEVCVPKTPKT (peptide, UniProt P60514 1-40) [PcTx1], the binding [2] was “binds”.
